Reference: PMC1540706
These are yes or no findings as the source states them, for the method shown. For some assays here: A result given as binding can be weak or reduced; the word gives no strength. For some assays here: Tags and fused reporters may be left off the sequences shown. For some assays here: In cells and extracts the contact can be indirect.

The chains behind the UniProt entries cited, without tags or fusion partners. Where a name states a change or a piece, a line headed by the entry shows the natural chain unless it says otherwise.
UniProt P63010: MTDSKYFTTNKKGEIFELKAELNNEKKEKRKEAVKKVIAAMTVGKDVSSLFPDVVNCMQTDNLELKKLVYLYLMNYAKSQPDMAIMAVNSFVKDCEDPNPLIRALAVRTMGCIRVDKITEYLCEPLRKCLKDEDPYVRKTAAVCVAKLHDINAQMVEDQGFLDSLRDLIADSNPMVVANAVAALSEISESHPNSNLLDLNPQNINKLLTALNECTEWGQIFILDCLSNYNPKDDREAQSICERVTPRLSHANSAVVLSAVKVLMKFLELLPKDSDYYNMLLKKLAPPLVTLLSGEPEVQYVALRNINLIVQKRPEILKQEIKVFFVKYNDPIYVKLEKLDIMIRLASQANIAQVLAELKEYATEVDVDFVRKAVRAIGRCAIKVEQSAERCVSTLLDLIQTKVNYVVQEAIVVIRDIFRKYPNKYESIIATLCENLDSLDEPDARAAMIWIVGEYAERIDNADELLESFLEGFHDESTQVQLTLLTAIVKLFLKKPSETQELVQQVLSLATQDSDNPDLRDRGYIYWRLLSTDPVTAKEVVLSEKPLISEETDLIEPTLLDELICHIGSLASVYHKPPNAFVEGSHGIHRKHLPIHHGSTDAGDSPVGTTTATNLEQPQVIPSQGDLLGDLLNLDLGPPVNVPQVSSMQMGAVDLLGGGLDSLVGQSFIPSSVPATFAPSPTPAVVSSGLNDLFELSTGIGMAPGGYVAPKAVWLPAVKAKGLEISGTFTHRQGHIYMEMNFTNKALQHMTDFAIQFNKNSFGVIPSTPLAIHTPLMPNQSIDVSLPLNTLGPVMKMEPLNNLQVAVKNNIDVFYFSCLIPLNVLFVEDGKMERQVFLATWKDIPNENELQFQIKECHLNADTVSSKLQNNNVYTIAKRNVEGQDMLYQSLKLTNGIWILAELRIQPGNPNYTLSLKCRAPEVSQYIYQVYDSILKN

How the values were obtained:
[1] = target: GST-mouse-α-appendage (α-earL695–983) (mouse); experiment: SPR; BIA2000; GST-α or GST-β2 amine-coupled to a CM5 chip; 6× His hEps15-MD injected at 300 nM; 20 mM HEPES, 150 mM NaCl, pH 7.4; dissociation over 7,000 s at 20 μl/min; GST surface subtracted; both purified
[2] = target: human β2-appendage (700–937), top site mutant used for ITC (human) (UniProt P63010); experiment: ITC; VP-ITC; 100 mM HEPES, 50 mM NaCl, 2 mM DTT pH 7.4 at 10 °C; peptides or proteins injected from the syringe into the cell; both purified
[3] = target: human β2-appendage (700–937), side site mutant used for ITC (human) (UniProt P63010); experiment: as above
[4] = target: GST-human-β2-appendage (700–937) mutated at K719 (human) (UniProt P63010); experiment: pull-down; GST fusion protein on beads in (rat) brain extract; bound proteins detected by Western blotting (Figures 2B, 5E, 6A-D); only the target purified

B1: 6× His human Eps15-MD (530–791) (domain or fragment, UniProt P42566 530-791)
chain: STSSSETANLNEHVEGQSNLESEPIHQESPARSSPELLPSGVTDENEVTTAVTEKVCSELDNNRHSKEEDPFNVDSSSLTGPVADTNLDFFQSDPFVGSDPFKDDPFGKIDPFGGDPFKGSDPFASDCFFRQSTDPFATSSTDPFSAANNSSITSVETLKHNDPFAPGGTVVAASDSATDPFASVFGNESFGGGFADFSTLSKVNNEDPFRSATSSSVSNVVITKNVFEETSVKSEDEPPALPPKIGTPTRPCPLPPGKRSI
binding [1]: binds

B2: β-arrestin P-long peptide (peptide)
peptide: DDDIVFEDFARQRLKGMKDD
binding [2]: no binding
binding [3]: binds

B3: amphiphysin (brain extract) (protein, UniProt O08838 1-683)
chain: MADIKTGIFAKNVQKRLNRAQEKVLQKLGKADETKDEQFEEYVQNFKRQEAEGTRLQRELRGYLAAIKGMQEASMKLTESLHEVYEPDWYGREDVKMVGEKCDVLWEDFHQKLVDGSLLTLDTYLGQFPDIKNRIAKRSRKLVDYDSARHHLEALQSSKRKDESRISKAEEEFQKAQKVFEEFNVDLQEELPSLWSRRVGFYVNTFKNVSSLEAKFHKEIAVLCHKLYEVMTKLGDQHADKAFSIQGAPSDSGPLRIAKTPSPPEEASPLPSPTASPNHTLAPASPAPVRPRSPSQTRKGPPVPPLPKVTPTKELQQENIINFFEDNFVPEINVTTPSQNEVLEVKKEETLLDLDFDPFKPDVTPAGSAAATHSPMSQTLPWDLWTTSTDLVQPASGGSFNDFTQPQDTSLFTMQTDQNMAETEQALPTEPQAEEPPTTAAAPTAGLDLGLEMEEPKEEAAIPPGTDAGETVGTEGSTGEEAEAEKAALPAGEGESPEGAKIDVESTELASSESPQAAELEAGAPQEKVIPSVVIEPASNHEGEEHQETTTGTETREATEDVAPQGPAGEKQELATEPTPLDSQAATPAPAGAVDASLSAGDAAQELPPGFLYKVETLHDFEAANSDELTLQRGDVVLVVPSDSEADQDAGWLVGVKESDWLQYRDLATYKGLFPENFTRHLE
binding [4]: binds

B4: AP180 (brain extract) (protein, UniProt Q05140 1-915)
chain: MSGQTLTDRIAAAQYSVTGSAVARAVCKATTHEVMGPKKKHLDYLIQATNETNVNIPQMADTLFERATNSSWVVVFKALVTTHHLMVHGNERFIQYLASRNTLFNLSNFLDKSGSHGYDMSTFIRRYSRYLNEKAFSYRQMAFDFARVKKGADGVMRTMVPEKLLKSMPILQGQIDALLEFDVHPNELTNGVINAAFMLLFKDLIKLFACYNDGVINLLEKFFEMKKGQCKDALEIYKRFLTRMTRVSEFLKVADEVGIDKGDIPDLTQAPSSLMETLEQHLNTLEGKKPGNNEGSGAPSPLSKSSPATTVTSPNSTPAKTIDTSPPVDIFATASAAAPVSSAKPSSDLLDLQPDFSGARAGAAAPVPPPTGGATAWGDLLGEDSLAALSSVPSEAPISDPFAPEPSPPTTTTEPASASASATTAVTAATTEVDLFGDAFAASPGEAPAASEGATAPATPAPVAAALDACSGNDPFAPSEGSAEAAPELDLFAMKPPETSAPVVTPTASTAPPVPATAPSPAPTAVAATAATTTAAAAATTTATTSAAAATTAAAPPALDIFGDLFDSAPEVAAASKPDVAPSIDLFGTDAFSSPPRGASPVPESSLTADLLSGSGFHCAEDDRHVPLFFTAVDAFAAPSPASTASPAKAESSGVIDLFGDAFGSSASETQPAPQAVSSSSASADLLAGFGGSFMAPSTTPVTPAQNNLLQPNFEAAFGTTPSTSSSSSFDPSGDLLMPTMAPSGQPAPVSMVPPSPAMSASKGLGSDLDSSLASLVGNLGISGTTSKKGDLQWNAGEKKLTGGANWQPKVTPATWSAGVPPQGTVPPTSSVPPGAGAPSVGQPGAGYGMPPAGTGMTMMPQQPVMFAQPMMRPPFGAAAVPGTQLSPSPTPATQSPKKPPAKDPLADLNIKDFL
binding [4]: binds
